# Source: the supplement of paper PMC12067093, “Discovery and optimisation of a covalent ligand for TRIM25 and its application to targeted protein ubiquitination” (Chemical Science, 2025)
# Sequences of proteins named here, by UniProt entry; tags and fusion partners are left off. A change or cut given only in a name is not applied to a line headed by its entry.
# UniProt P50502: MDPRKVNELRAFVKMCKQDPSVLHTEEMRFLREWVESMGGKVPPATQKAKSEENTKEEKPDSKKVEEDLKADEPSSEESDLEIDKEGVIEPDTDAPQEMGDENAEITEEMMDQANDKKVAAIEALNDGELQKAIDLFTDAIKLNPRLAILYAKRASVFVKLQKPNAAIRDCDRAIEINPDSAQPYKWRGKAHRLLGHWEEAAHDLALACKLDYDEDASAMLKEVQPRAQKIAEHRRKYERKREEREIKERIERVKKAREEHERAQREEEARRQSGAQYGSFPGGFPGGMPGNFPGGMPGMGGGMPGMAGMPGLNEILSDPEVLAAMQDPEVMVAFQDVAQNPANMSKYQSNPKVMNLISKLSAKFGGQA
# UniProt Q15527: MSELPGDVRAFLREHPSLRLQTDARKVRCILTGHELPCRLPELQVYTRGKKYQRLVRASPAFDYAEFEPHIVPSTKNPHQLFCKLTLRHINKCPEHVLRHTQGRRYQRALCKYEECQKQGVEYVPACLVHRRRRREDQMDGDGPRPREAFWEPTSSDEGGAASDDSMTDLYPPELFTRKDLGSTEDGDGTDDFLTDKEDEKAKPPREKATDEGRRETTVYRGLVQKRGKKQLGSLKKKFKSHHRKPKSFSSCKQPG
# UniProt P42224: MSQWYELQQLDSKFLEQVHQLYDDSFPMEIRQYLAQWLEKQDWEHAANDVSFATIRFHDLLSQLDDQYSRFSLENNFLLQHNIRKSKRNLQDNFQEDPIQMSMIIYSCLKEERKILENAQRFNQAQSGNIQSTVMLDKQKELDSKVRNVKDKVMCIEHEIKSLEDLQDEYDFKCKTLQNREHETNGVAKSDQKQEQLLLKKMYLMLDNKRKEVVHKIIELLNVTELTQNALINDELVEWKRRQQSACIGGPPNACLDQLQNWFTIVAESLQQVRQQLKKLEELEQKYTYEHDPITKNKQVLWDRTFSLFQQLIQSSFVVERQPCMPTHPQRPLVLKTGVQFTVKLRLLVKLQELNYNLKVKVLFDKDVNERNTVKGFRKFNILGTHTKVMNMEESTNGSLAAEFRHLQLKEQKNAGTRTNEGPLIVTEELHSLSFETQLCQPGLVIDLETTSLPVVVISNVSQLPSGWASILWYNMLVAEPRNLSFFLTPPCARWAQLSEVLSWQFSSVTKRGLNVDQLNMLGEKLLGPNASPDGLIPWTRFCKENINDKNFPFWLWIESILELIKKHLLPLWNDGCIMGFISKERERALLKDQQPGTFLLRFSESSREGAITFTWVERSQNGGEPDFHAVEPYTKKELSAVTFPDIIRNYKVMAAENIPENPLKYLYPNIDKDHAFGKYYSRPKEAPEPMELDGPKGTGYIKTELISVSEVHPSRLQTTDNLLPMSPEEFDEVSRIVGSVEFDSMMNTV
# UniProt Q8N1F8: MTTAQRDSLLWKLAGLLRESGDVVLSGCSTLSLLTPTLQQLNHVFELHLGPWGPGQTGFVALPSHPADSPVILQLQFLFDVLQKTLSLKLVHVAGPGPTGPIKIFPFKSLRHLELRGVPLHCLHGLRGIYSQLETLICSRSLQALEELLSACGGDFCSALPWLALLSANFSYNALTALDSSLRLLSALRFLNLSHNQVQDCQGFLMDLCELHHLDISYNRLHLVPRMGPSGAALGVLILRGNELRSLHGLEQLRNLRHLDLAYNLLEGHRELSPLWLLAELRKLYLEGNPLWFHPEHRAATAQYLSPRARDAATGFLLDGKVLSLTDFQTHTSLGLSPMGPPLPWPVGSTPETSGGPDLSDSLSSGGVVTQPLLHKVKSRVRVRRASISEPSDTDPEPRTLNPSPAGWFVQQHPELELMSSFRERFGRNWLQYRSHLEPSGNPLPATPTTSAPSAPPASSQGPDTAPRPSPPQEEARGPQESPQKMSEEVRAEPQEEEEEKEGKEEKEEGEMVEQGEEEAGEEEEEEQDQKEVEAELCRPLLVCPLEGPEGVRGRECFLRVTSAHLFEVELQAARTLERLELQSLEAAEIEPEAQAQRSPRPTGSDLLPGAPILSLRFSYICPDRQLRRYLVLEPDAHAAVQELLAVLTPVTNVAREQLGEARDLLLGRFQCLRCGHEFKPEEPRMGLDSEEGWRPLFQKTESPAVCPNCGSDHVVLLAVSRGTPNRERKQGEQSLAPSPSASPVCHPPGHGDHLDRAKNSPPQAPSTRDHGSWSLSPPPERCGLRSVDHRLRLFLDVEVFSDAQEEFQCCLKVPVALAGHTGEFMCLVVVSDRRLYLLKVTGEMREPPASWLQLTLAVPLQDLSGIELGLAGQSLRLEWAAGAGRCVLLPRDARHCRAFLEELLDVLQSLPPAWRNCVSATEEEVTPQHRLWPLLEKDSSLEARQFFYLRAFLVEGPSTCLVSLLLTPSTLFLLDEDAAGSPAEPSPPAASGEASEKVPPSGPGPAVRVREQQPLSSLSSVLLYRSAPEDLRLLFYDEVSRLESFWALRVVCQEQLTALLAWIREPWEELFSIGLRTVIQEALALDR
# UniProt O94804: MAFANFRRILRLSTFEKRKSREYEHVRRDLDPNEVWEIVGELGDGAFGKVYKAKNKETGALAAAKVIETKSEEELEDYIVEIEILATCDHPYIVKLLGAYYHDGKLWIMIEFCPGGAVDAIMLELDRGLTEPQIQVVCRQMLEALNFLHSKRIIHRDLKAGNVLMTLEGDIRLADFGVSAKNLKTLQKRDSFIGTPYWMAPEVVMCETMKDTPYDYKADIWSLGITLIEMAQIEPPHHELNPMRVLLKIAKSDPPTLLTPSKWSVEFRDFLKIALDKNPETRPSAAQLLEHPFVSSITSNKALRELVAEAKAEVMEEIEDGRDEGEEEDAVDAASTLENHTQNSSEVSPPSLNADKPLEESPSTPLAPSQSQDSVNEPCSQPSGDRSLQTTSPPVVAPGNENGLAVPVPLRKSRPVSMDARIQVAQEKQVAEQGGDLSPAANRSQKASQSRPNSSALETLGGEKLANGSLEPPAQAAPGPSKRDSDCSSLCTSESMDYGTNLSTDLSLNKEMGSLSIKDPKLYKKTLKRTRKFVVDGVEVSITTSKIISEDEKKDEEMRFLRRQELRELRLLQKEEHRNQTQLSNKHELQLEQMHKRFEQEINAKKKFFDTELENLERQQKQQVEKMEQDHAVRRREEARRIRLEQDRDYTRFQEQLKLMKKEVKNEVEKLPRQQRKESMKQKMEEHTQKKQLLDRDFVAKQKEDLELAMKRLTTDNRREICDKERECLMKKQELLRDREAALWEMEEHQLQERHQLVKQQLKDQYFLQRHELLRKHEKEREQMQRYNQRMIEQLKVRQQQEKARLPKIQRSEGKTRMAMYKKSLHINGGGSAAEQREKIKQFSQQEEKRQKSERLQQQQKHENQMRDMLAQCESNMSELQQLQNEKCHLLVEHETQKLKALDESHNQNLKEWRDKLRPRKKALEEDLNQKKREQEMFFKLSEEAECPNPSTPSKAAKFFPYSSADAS
# UniProt O75494: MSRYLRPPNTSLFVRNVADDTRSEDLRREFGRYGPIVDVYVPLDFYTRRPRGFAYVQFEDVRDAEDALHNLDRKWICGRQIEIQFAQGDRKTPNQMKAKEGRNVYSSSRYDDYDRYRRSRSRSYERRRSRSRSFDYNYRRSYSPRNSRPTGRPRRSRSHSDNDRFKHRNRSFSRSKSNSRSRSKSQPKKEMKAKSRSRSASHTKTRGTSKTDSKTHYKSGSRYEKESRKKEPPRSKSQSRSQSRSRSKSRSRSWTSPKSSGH
# UniProt Q9UNE7: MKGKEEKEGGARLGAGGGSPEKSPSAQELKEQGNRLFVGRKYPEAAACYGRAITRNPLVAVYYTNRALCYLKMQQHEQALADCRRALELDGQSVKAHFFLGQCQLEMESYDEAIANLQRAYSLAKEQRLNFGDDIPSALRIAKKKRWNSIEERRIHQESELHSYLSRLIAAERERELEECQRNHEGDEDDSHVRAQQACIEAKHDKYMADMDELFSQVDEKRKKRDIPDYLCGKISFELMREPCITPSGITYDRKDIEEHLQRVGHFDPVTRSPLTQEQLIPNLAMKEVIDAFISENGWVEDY
# UniProt Q8IYB8: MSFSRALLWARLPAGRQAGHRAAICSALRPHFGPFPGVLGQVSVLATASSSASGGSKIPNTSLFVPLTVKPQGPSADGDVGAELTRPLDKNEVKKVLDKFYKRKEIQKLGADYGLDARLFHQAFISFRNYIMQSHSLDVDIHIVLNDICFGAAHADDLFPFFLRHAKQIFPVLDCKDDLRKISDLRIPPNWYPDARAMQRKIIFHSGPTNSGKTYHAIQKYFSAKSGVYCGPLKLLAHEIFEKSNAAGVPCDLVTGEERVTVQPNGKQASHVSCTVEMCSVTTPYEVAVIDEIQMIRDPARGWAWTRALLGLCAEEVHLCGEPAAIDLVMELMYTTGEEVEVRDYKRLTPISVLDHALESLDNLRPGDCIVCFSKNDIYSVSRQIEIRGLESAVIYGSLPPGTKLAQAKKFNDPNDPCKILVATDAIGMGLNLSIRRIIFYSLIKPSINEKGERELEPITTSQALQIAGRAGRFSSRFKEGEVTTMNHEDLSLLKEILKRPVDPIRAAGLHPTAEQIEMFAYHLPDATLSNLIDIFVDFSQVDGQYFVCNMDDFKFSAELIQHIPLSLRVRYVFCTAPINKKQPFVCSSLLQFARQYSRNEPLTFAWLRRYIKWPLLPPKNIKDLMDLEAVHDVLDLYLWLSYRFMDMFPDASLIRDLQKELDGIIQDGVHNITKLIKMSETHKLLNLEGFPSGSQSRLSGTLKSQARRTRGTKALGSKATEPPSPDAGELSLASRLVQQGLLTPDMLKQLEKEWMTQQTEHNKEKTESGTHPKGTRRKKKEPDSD
# UniProt O75683: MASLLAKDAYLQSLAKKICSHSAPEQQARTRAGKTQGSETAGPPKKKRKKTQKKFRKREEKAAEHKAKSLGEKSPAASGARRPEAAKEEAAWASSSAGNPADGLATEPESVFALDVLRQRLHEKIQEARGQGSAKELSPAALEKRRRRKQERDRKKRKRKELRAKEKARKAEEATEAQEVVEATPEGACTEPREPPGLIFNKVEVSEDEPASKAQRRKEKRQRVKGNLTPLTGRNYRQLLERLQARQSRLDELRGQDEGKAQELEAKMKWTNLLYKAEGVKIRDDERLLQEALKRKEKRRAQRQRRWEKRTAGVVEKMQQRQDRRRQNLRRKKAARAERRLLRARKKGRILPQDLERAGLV
# UniProt Q92797: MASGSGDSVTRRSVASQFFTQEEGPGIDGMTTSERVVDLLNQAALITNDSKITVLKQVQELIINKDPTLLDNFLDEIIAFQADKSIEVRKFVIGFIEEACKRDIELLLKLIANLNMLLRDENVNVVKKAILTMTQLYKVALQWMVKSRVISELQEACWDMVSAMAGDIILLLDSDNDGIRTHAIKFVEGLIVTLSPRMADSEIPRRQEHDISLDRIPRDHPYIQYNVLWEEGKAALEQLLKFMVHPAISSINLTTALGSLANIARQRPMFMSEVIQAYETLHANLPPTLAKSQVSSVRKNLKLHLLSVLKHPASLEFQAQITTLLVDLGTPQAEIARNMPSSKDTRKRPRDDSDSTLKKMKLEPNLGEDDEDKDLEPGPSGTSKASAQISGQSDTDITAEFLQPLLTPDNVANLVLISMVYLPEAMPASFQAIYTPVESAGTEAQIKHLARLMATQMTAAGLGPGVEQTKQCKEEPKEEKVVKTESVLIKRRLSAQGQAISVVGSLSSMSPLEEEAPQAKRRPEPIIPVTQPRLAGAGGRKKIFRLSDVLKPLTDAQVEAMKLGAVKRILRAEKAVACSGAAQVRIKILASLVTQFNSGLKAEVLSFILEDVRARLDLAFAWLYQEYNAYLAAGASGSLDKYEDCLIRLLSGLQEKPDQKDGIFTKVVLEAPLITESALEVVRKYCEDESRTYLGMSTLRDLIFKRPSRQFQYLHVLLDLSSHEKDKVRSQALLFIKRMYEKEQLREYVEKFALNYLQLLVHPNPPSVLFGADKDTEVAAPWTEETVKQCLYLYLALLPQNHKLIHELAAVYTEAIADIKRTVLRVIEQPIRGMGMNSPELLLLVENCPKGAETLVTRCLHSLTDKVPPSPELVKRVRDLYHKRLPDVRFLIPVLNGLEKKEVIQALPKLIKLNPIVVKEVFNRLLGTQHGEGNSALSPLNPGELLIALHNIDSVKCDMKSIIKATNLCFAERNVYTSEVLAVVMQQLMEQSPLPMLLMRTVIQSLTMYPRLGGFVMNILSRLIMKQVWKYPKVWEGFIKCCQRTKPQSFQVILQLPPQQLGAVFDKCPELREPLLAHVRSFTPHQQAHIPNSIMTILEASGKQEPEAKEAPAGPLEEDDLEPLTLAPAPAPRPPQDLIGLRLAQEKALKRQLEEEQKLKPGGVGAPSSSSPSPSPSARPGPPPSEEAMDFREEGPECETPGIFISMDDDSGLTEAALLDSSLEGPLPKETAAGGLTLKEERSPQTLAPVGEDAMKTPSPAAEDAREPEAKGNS
# This is one part of the list.
# Compound: Cc1cc(ccc1-c1ccccc1)C(=O)N1CCCN(CC1)C(=O)CCl [compound 10]
# Experiment: probe-labelled cysteine peptide fold change vs DMSO (competition) (log2 fold change); higher = less target engagement (more negative = stronger competition)
# Conditions: THP-1, incubation time: 4 h
# 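Further: competitive profiling in live THP-1 cells: cysteine peptides tagged with an iodoacetamide desthiobiotin (IA-DTB) probe, intensity after compound treatment relative to DMSO-treated cells.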
target,measurement,setting,value
ST13_P50502_209_LLGHWEEAAHDLALACKLDYDEDASAMLK (UniProt P50502),probe-labelled cysteine peptide fold change,10 µM,-0.319
same,probe-labelled cysteine peptide fold change,50 µM,-1.1
SURF2_Q15527_127_QGVEYVPACLVHR (UniProt Q15527),probe-labelled cysteine peptide fold change,10 µM,-0.0766
same,probe-labelled cysteine peptide fold change,50 µM,-0.161
STAT1_P42224_108_NLQDNFQEDPIQMSMIIYSCLK (UniProt P42224),probe-labelled cysteine peptide fold change,10 µM,0.0579
same,probe-labelled cysteine peptide fold change,50 µM,0.00709
SUPT5H_O00267_638_LVENGGMFVCK (UniProt O00267),probe-labelled cysteine peptide fold change,10 µM,-0.125
same,probe-labelled cysteine peptide fold change,50 µM,0.306
STK11IP_Q8N1F8_707+710_TESPAVCPNCGSDHVVLLAVSR (UniProt Q8N1F8),probe-labelled cysteine peptide fold change,10 µM,0.0186
same,probe-labelled cysteine peptide fold change,50 µM,0.166
STK10_O94804_873_DMLAQCESNMSELQQLQNEK (UniProt O94804),probe-labelled cysteine peptide fold change,10 µM,-0.178
same,probe-labelled cysteine peptide fold change,50 µM,-0.0686
SRSF10_O75494-5_149_KPNCSWNTQYSSAYYTSR (UniProt O75494),probe-labelled cysteine peptide fold change,10 µM,0.124
same,probe-labelled cysteine peptide fold change,50 µM,-0.514
SUPT5H_O00267_740_VELHSTCQTISVDR (UniProt O00267),probe-labelled cysteine peptide fold change,10 µM,-0.0717
same,probe-labelled cysteine peptide fold change,50 µM,-0.0519
STUB1_Q9UNE7_48_KYPEAAACYGR (UniProt Q9UNE7),probe-labelled cysteine peptide fold change,10 µM,0.0355
same,probe-labelled cysteine peptide fold change,50 µM,-0.145
SUPV3L1_Q8IYB8_251_SNAAGVPCDLVTGEER (UniProt Q8IYB8),probe-labelled cysteine peptide fold change,10 µM,-0.0675
same,probe-labelled cysteine peptide fold change,50 µM,0.0989
SURF6_O75683_189_KAEEATEAQEVVEATPEGACTEPR (UniProt O75683),probe-labelled cysteine peptide fold change,10 µM,-0.0912
same,probe-labelled cysteine peptide fold change,50 µM,-0.433
STRN4_Q9NRL3_337_CTVDGSPHELESR (UniProt Q9NRL3),probe-labelled cysteine peptide fold change,10 µM,-0.216
same,probe-labelled cysteine peptide fold change,50 µM,-0.349
STAT2_P52630_71_ATMLFFHFLDQLNYECGR (UniProt P52630),probe-labelled cysteine peptide fold change,10 µM,0.132
same,probe-labelled cysteine peptide fold change,50 µM,0.391
SYMPK_Q92797_1068_CPELREPLLAHVR (UniProt Q92797),probe-labelled cysteine peptide fold change,10 µM,0.0226
same,probe-labelled cysteine peptide fold change,50 µM,-0.195

# Some of the entries so far, with bars between the fields:
target | measurement | setting | value
SUPT5H_O00267_638_LVENGGMFVCK (UniProt O00267) | probe-labelled cysteine peptide fold change | 50 µM | 0.306
SRSF10_O75494-5_149_KPNCSWNTQYSSAYYTSR (UniProt O75494) | probe-labelled cysteine peptide fold change | 50 µM | -0.514
